Binding data for 1 molecule are collected here from article PMC3990689, “Identification and Characterization of ABA Receptors in Oryza sativa” (PLoS ONE, 2014).

These are yes or no findings as the source states them, for the method shown.

In assay [1] the target is OsPYL11 (Oryza sativa (japonica cultivar-group)) (UniProt Q6I5C3). The assay can be described thus: SEC; Superdex-200 HR10/300 GL, 25 mM HEPES pH 7.0, 150 mM NaCl; 500 µL OsPYL (OD280 = 0.75) applied; oligomerization state; both purified. A general note: In gel filtration, larger molecules generally elute earlier.
Assay [2] shares this target. The assay can be described thus: static light scattering; DAWN HELLOS II (Wyatt) at 18°C; OsPYLs about 2 mg/mL; calibrated with albumin monomer standard; oligomerization state; both purified.
Assay [3] shares this target. In words: AUC; sedimentation velocity at 4°C, 40,000 rpm; OsPYL proteins at OD280 = 0.75; absorbance at 280 nm; oligomerization state; both purified.

B1: OsPYL11 (receptor, UniProt Q6I5C3 1-209)
chain: MVGLVGGGGWRVGDDAAGGGGGGAVAAGAAAAAEAEHMRRLHSHAPGEHQCSSALVKHIKAPVHLVWSLVRSFDQPQRYKPFVSRCVVRGGDLEIGSVREVNVKTGLPATTSTERLELLDDDEHILSVKFVGGDHRLRNYSSIVTVHPESIDGRPGTLVIESFVVDVPDGNTKDETCYFVEAVIKCNLTSLAEVSERLAVQSPTSPLEQ
Consider B1, for which the results for the binding result in assay [1], in assay [2] and in assay [3] were “no binding (tested: OD280 = 0.75)”, “no binding (tested: about 2 mg/mL)” and “no binding (tested: OD280 = 0.75)”, respectively.
